Measured values from article doi:10.1101/2020.05.08.084418.

Experiments:
[1] = target: MV-C fused downstream of the Nluc2 fragment of Nanoluciferase (pSNL-N2-C) (Measles virus); assay: split reporter
[2] = target: MV-C tagged C-terminally with Nano-Luciferase (C-Nluc) (Measles virus, Schwarz vaccine strain); assay: FRET or BRET
[3] = target: MV-C tagged N-terminally with Nano-Luciferase (Nluc-C) (Measles virus, Schwarz vaccine strain); assay: FRET or BRET

Row | Binder | binding [1] | binding [2] | binding [3]
1 | iASPP fused downstream of the Nluc1 fragment of Nanoluciferase (pSNL-N1) (protein, UniProt Q8WUF5 1-828) MDSEAFQSARDFLDMNFQSLAMKHMDLKQMELDTAAAKVDELTKQLESLWSDSPAPPGPQAGPPSRPPRYSSSSIPEPFGSRGSPRKAATDGADTPFGRSESAPTLHPYSPLSPKGRPSSPRTPLYLQPDAYGSLDRATSPRPRAFDGAGSSLGRAPSPRPGPGPLRQQGPPTPFDFLGRAGSPRGSPLAEGPQAFFPERGPSPRPPATAYDAPASAFGSSLLGSGGSAFAPPLRAQDDLTLRRRPPKAWNESDLDVAYEKKPSQTASYERLDVFARPASPSLQLLPWRESSLDGLGGTGKDNLTSATLPRNYKVSPLASDRRSDAGSYRRSLGSAGPSGTLPRSWQPVSRIPMPPSSPQPRGAPRQRPIPLSMIFKLQNAFWEHGASRAMLPGSPLFTRAPPPKLQPQPQPQPQPQSQPQPQLPPQPQTQPQTPTPAPQHPQQTWPPVNEGPPKPPTELEPEPEIEGLLTPVLEAGDVDEGPVARPLSPTRLQPALPPEAQSVPELEEVARVLAEIPRPLKRRGSMEQAPAVALPPTHKKQYQQIISRLFHRHGGPGPGGPEPELSPITEGSEARAGPPAPAPPAPIPPPAPSQSSPPEQPQSMEMRSVLRKAGSPRKARRARLNPLVLLLDAALTGELEVVQQAVKEMNDPSQPNEEGITALHNAICGANYSIVDFLITAGANVNSPDSHGWTPLHCAASCNDTVICMALVQHGAAIFATTLSDGATAFEKCDPYREGYADCATYLADVEQSMGLMNSGAVYALWDYSAEFGDELSFREGESVTVLRRDGPEETDWWWAALHGQEGYVPRNYFGLFPRVKPQRSKV | binds | – | –
2 | iASPP fused to EYFP (iASPP-YFP) (protein, UniProt Q8WUF5 1-828) MDSEAFQSARDFLDMNFQSLAMKHMDLKQMELDTAAAKVDELTKQLESLWSDSPAPPGPQAGPPSRPPRYSSSSIPEPFGSRGSPRKAATDGADTPFGRSESAPTLHPYSPLSPKGRPSSPRTPLYLQPDAYGSLDRATSPRPRAFDGAGSSLGRAPSPRPGPGPLRQQGPPTPFDFLGRAGSPRGSPLAEGPQAFFPERGPSPRPPATAYDAPASAFGSSLLGSGGSAFAPPLRAQDDLTLRRRPPKAWNESDLDVAYEKKPSQTASYERLDVFARPASPSLQLLPWRESSLDGLGGTGKDNLTSATLPRNYKVSPLASDRRSDAGSYRRSLGSAGPSGTLPRSWQPVSRIPMPPSSPQPRGAPRQRPIPLSMIFKLQNAFWEHGASRAMLPGSPLFTRAPPPKLQPQPQPQPQPQSQPQPQLPPQPQTQPQTPTPAPQHPQQTWPPVNEGPPKPPTELEPEPEIEGLLTPVLEAGDVDEGPVARPLSPTRLQPALPPEAQSVPELEEVARVLAEIPRPLKRRGSMEQAPAVALPPTHKKQYQQIISRLFHRHGGPGPGGPEPELSPITEGSEARAGPPAPAPPAPIPPPAPSQSSPPEQPQSMEMRSVLRKAGSPRKARRARLNPLVLLLDAALTGELEVVQQAVKEMNDPSQPNEEGITALHNAICGANYSIVDFLITAGANVNSPDSHGWTPLHCAASCNDTVICMALVQHGAAIFATTLSDGATAFEKCDPYREGYADCATYLADVEQSMGLMNSGAVYALWDYSAEFGDELSFREGESVTVLRRDGPEETDWWWAALHGQEGYVPRNYFGLFPRVKPQRSKV | – | binds | binds

No constants are given. Whether binding was seen depends on the method and setting. Binding seen in cells or lysates may run through a third protein. Binding calls can cover weak binding; strength is not graded here. Where a sequence is shown, tags or fusion partners need not be part of it.
